The other results are listed elsewhere or left out.

By UniProt entry, the sequences of proteins in these tests, tags left out. Where a name states a change or a piece, a line headed by the entry shows the natural chain unless it says otherwise.
UniProt Q8NG11: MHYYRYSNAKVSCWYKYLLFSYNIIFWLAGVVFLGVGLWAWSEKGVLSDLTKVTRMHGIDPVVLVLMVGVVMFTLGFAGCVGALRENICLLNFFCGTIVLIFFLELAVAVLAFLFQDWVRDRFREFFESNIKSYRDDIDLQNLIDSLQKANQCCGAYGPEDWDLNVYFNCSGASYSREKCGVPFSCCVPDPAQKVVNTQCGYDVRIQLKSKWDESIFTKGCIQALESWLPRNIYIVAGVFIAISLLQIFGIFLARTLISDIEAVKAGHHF
UniProt Q8TBC4: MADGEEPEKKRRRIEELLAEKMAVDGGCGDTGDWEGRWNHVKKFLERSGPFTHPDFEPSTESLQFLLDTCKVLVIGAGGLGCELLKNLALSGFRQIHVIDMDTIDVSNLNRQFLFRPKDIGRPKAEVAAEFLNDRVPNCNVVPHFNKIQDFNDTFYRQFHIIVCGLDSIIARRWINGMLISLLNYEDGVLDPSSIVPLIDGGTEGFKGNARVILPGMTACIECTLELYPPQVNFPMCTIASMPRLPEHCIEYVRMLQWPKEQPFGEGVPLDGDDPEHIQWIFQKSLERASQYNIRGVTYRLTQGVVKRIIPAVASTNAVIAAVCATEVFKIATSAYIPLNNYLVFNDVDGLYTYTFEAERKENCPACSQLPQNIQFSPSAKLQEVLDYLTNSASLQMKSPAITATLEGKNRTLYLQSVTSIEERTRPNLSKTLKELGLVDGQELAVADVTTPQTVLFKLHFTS
UniProt P83876: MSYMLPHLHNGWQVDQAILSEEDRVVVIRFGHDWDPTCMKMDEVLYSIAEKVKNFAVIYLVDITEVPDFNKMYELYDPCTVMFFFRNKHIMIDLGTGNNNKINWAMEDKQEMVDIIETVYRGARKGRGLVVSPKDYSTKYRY
UniProt P68036, whole entry, looked up: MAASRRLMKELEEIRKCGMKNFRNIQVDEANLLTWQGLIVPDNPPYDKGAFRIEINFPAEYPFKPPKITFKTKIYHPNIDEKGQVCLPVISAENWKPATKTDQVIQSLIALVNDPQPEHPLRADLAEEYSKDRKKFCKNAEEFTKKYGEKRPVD
UniProt Q9UNY4: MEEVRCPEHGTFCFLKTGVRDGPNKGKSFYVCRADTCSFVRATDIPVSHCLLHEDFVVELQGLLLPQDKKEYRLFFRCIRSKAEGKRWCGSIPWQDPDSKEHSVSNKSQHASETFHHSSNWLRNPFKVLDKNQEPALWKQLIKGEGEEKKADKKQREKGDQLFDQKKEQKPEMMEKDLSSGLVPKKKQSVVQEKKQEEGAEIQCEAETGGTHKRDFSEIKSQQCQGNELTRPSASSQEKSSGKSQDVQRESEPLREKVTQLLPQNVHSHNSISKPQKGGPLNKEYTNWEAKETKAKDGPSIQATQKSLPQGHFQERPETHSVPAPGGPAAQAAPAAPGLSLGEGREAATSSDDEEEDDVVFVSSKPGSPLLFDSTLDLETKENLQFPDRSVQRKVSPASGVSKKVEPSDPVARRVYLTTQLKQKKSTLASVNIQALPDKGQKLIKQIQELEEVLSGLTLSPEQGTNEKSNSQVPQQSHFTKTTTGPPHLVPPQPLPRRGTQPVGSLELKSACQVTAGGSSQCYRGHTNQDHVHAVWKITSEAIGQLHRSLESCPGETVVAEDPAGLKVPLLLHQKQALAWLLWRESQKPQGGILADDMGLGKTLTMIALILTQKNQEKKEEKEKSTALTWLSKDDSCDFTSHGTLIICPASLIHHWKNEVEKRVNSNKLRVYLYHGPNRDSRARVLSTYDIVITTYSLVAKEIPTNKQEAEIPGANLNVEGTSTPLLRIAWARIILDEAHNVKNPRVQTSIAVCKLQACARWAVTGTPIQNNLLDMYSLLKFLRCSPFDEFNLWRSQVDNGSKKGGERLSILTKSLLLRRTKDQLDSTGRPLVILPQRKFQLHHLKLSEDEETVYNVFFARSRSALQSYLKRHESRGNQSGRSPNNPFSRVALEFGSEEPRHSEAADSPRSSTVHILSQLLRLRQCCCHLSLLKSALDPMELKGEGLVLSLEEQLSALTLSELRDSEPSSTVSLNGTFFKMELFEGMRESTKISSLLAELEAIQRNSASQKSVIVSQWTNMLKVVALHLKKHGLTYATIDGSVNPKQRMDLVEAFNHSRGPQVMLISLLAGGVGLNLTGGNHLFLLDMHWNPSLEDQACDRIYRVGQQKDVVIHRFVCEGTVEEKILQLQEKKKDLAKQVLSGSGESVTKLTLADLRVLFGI
UniProt O95801: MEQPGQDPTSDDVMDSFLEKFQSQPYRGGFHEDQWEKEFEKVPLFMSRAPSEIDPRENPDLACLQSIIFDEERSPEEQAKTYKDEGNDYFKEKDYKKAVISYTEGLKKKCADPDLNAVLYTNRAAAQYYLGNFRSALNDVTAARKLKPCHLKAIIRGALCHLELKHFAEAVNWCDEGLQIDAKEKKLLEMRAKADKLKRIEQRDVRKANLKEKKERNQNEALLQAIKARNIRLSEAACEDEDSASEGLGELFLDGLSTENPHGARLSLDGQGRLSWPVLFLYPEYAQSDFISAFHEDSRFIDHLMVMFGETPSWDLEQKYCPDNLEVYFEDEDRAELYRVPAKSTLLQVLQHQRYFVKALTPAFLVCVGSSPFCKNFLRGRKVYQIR
UniProt Q969E8: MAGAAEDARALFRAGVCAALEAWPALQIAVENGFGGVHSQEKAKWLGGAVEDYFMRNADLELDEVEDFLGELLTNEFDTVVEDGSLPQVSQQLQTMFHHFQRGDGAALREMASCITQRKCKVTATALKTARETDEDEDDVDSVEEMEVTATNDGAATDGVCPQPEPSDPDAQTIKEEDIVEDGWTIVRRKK
UniProt Q9NNW7, whole entry, looked up: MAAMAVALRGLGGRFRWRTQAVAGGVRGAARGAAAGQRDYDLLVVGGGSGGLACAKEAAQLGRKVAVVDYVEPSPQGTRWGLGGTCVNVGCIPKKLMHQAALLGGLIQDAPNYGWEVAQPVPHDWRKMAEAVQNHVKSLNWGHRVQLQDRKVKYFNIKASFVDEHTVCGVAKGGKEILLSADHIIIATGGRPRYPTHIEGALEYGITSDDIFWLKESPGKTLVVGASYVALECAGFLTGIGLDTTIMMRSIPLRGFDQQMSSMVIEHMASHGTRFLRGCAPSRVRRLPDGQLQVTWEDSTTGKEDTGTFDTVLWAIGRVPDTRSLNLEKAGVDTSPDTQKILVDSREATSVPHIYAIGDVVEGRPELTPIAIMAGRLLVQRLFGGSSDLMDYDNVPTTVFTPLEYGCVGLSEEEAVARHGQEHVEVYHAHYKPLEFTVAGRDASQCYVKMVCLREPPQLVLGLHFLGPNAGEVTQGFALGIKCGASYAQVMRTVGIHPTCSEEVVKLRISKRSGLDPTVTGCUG
UniProt Q5T6F2: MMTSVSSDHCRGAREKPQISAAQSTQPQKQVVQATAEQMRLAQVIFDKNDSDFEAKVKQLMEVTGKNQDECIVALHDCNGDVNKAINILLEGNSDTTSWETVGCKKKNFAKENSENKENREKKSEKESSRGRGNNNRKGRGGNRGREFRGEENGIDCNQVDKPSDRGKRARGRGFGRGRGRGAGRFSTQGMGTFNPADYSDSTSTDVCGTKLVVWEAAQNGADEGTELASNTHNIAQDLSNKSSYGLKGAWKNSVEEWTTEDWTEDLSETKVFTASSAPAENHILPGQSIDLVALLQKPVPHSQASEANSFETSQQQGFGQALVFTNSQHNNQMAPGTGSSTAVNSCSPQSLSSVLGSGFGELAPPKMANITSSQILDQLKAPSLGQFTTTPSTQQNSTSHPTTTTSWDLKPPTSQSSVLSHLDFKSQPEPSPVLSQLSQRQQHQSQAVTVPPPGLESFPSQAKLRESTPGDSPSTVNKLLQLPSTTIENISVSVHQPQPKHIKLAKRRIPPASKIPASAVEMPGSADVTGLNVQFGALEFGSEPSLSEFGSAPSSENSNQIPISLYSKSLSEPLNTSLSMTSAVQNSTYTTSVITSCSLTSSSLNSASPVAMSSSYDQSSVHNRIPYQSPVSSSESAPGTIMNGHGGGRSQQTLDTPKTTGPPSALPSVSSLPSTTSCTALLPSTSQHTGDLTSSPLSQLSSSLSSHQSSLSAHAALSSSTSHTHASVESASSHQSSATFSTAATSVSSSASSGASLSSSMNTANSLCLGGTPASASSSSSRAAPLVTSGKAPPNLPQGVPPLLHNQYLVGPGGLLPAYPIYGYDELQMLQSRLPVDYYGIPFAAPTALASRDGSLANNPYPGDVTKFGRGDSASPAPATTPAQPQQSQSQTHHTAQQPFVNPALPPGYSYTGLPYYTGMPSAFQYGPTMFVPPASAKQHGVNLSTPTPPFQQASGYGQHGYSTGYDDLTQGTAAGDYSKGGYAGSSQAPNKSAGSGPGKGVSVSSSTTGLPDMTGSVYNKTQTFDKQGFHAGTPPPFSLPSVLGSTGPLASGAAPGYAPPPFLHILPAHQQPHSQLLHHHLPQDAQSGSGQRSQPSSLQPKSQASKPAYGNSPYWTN
UniProt Q16222: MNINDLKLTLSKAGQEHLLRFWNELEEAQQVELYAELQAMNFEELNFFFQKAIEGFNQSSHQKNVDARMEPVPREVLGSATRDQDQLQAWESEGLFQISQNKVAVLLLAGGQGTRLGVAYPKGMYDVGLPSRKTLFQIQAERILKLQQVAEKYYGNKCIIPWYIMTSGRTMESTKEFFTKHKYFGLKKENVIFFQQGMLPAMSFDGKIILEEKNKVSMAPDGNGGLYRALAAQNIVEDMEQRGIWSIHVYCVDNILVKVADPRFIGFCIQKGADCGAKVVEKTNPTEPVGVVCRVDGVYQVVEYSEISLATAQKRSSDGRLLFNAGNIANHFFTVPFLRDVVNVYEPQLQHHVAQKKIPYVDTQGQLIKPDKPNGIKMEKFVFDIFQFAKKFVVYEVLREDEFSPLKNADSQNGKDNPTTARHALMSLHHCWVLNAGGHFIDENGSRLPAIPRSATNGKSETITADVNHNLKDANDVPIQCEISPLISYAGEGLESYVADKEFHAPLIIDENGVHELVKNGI
UniProt P30536, whole entry, looked up: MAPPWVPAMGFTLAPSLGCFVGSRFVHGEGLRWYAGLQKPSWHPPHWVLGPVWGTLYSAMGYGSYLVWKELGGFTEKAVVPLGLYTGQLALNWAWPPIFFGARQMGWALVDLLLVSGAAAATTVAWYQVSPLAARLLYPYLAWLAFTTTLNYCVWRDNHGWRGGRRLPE
UniProt Q8NG68: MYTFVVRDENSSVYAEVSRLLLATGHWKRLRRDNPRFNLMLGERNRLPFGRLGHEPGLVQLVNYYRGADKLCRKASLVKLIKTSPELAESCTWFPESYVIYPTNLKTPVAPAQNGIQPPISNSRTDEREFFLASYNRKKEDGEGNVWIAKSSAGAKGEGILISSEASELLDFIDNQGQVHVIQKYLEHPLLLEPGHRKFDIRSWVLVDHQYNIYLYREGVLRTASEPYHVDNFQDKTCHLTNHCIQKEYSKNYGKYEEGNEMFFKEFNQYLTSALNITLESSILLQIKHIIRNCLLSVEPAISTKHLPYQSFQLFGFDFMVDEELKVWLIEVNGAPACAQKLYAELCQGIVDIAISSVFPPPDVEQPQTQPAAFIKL
UniProt Q96J42: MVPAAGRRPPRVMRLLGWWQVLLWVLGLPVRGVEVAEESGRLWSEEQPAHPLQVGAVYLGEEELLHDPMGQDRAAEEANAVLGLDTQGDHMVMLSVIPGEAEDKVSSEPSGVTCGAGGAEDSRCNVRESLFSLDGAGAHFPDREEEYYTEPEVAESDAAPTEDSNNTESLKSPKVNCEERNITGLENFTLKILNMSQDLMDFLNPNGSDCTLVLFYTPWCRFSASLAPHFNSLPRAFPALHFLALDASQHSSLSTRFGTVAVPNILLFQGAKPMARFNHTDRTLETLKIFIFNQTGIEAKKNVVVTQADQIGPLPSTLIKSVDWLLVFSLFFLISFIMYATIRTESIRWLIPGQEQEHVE
UniProt Q9NPD8: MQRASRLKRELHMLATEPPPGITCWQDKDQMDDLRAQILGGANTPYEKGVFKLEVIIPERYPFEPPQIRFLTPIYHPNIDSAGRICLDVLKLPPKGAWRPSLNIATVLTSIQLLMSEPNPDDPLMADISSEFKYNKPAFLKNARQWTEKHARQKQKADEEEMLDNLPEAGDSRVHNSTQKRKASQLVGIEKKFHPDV
UniProt Q969M7: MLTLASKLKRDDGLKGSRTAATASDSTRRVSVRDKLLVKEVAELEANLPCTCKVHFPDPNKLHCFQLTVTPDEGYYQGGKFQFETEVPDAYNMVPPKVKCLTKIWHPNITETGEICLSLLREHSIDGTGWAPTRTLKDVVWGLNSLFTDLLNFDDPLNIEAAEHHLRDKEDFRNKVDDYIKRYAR
UniProt P61086: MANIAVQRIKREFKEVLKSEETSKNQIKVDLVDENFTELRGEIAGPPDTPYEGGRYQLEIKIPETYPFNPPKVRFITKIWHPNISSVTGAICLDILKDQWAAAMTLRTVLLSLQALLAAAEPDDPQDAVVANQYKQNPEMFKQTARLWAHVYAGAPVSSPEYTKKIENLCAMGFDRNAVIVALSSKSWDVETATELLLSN
UniProt Q99757: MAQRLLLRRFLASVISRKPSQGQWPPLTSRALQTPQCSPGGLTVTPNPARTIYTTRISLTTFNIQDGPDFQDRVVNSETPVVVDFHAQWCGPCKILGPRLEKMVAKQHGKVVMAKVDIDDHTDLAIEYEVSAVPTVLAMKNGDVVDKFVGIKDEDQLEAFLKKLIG

For 40 targets, log2 fold change results are on record in the supplement of paper PMC10849652.

Compound in one assay: Nc1ccccc1NC(=O)c1ccc(CNC(=O)OCc2cccnc2)cc1 [entinostat]
Briefly: log2 fold change, soluble protein after heating vs DMSO (PISA); higher = thermal stabilisation; K562 cells, 10 uM, 30 min; active = over 0.2 and 3.5 SD of the protein, either way, in both replicates (recomputed). The procedure, abridged: (§1)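 Soluble protein was defined as the supernatant after 21,000xg for 90 min. It came from K562 cells at 2×10^6 cells/mL given 10 μM compound for 30 min, heated in aliquots for 3 min across 48°C-58°C, pooled, and extracted in PBS with 0.5% NP-40 at 4°C, and was quantified by TMTpro 16plex LC-MS/MS with equalised channel sums. Thermal stability against control samples, from duplicates, is reported as log2 fold change.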
Turning to UBAP1 isoform 4 (UniProt Q9NZ09), the log2 fold change is inactive: -0.027.
Still for that read-out and setting: in the case of U2AF2 (UniProt P26368) it was inactive: -0.031; in that of TSPAN14 (UniProt Q8NG11), inactive: 0.008.
Take UBA3 (UniProt Q8TBC4): the log2 fold change is inactive: 0.081.
In the case of TXNL4A (UniProt P83876), the log2 fold change is inactive: -0.015.
TXNDC9 (UniProt O14530): the log2 fold change is inactive: 0.003.
On the same count and under the same terms, then UBE2L3 isoform 3 (UniProt P68036), with inactive: 0; and UBAC1 (UniProt Q9BSL1), with inactive: 0.017.
Consider TTF2 (UniProt Q9UNY4), for which the log2 fold change was inactive: -0.035.
For the target UBE3A (UniProt Q05086), the log2 fold change is inactive: -0.009.
In the case of TTC9C (UniProt Q8N5M4), the log2 fold change is inactive: 0.067.
With TTC4 (UniProt O95801), the log2 fold change is inactive: 0.069.
The same measure, in the same setting: in the case of UBA1 (UniProt P22314) it was inactive: 0.159; in that of TSFM (UniProt P43897), inactive: 0.162.
Consider TSR2 (UniProt Q969E8), for which the log2 fold change was inactive: -0.047.
On the same count and under the same terms, in the case of TUBE1 (UniProt Q9UJT0) it was inactive: 0.012.
Still for that read-out and setting: in the case of UBE2S (UniProt Q16763) it was inactive: -0.026.
Still for that read-out and setting: in the case of TXNRD2 (UniProt Q9NNW7) it was inactive: 0.009; in that of UBE2E3 (UniProt Q969T4), inactive: 0.051.
Turning to UBAP2 (UniProt Q5T6F2), the log2 fold change is inactive: -0.025.
For UBE2M (UniProt P61081), the log2 fold change is inactive: 0.024.
In the case of TTC17 (UniProt Q96AE7), the log2 fold change was inactive: -0.039.
Take TTI1 (UniProt O43156): the log2 fold change was inactive: 0.
On the same count and under the same terms, then UAP1 (UniProt Q16222), with inactive: -0.016; and TSPO (UniProt P30536), with inactive: 0.026.
As to TTN isoform 12 (UniProt Q8WZ42), the log2 fold change is inactive: -0.18.
Take TTL (UniProt Q8NG68): the log2 fold change is inactive: -0.002.
As for TXNDC15 (UniProt Q96J42), the log2 fold change was inactive: 0.032.
Turning to UBE2T (UniProt Q9NPD8), the log2 fold change was inactive: 0.048.
Same read-out and setting: in the case of TWF2 (UniProt Q6IBS0) it was inactive: 0.
Take TUFM (UniProt P49411): the log2 fold change was inactive: 0.002.
Still for that read-out and setting: in the case of UBA52 (UniProt P62987) it was inactive: 0; in that of UBE2G1 (UniProt P62253), inactive: 0; in that of UBE2F isoform 2 (UniProt Q969M7), inactive: 0.015.
As to U2SURP (UniProt O15042), the log2 fold change is inactive: 0.159.
Same read-out and setting: in the case of TXNIP (UniProt Q9H3M7) it was inactive: -0.009; in that of UBE2K (UniProt P61086), inactive: -0.006.
Still for that read-out and setting: in the case of U2AF1 isoform 2 (UniProt Q01081) it was inactive: -0.013; in that of TUBB3 (UniProt Q13509), inactive: -0.04; in that of TXN2 (UniProt Q99757), inactive: 0.023.

Compound in a further assay: O=C(CCCCCCC(=O)Nc1ccccc1)NO [vorinostat]
The description is as above. Summed up: as §1
Regarding UBAP1 isoform 4 (UniProt Q9NZ09), the log2 fold change was inactive: -0.019.
On the same count and under the same terms, then U2AF2 (UniProt P26368), with inactive: -0.129; and TSPAN14 (UniProt Q8NG11), with inactive: -0.103.
As to UBA3 (UniProt Q8TBC4), the log2 fold change was inactive: 0.121.
For TXNL4A (UniProt P83876), the log2 fold change is inactive: -0.013.
Still for that read-out and setting: then TXNDC9 (UniProt O14530), with inactive: -0.003; and UBE2L3 isoform 3 (UniProt P68036), with inactive: 0.002.
UBAC1 (UniProt Q9BSL1): the log2 fold change is inactive: 0.048.
The same measure, in the same setting: in the case of TTF2 (UniProt Q9UNY4) it was inactive: 0.15.
Turning to UBE3A (UniProt Q05086), the log2 fold change is inactive: 0.03.
Still for that read-out and setting: in the case of TTC9C (UniProt Q8N5M4) it was inactive: 0.041; in that of TTC4 (UniProt O95801), inactive: 0.077.
Regarding UBA1 (UniProt P22314), the log2 fold change was inactive: 0.167.
As for TSFM (UniProt P43897), the log2 fold change was inactive: 0.016.
With TSR2 (UniProt Q969E8), the log2 fold change was inactive: -0.158.
TUBE1 (UniProt Q9UJT0): the log2 fold change was inactive: -0.045.
Consider UBE2S (UniProt Q16763), for which the log2 fold change is inactive: 0.002.
On to TXNRD2 (UniProt Q9NNW7), for which the log2 fold change was inactive: 0.011.
Regarding UBE2E3 (UniProt Q969T4), the log2 fold change was inactive: 0.103.
Still for that read-out and setting: in the case of UBAP2 (UniProt Q5T6F2) it was inactive: -0.023; in that of UBE2M (UniProt P61081), inactive: 0.005.
Turning to TTC17 (UniProt Q96AE7), the log2 fold change was inactive: 0.043.
Consider TTI1 (UniProt O43156), for which the log2 fold change was inactive: 0.142.
The same measure, in the same setting: then UAP1 (UniProt Q16222), with inactive: 0.034; and TSPO (UniProt P30536), with inactive: -0.026.
The same measure, in the same setting: then TTN isoform 12 (UniProt Q8WZ42), with inactive: 0.106.
As to TTL (UniProt Q8NG68), the log2 fold change is inactive: 0.025.
Turning to TXNDC15 (UniProt Q96J42), the log2 fold change was inactive: 0.042.
Turning to UBE2T (UniProt Q9NPD8), the log2 fold change was inactive: 0.011.
The same measure, in the same setting: then TWF2 (UniProt Q6IBS0), with inactive: 0.009; and TUFM (UniProt P49411), with inactive: 0.034; and UBA52 (UniProt P62987), with inactive: 0.029.
For UBE2G1 (UniProt P62253), the log2 fold change is inactive: -0.132.
Take UBE2F isoform 2 (UniProt Q969M7): the log2 fold change was inactive: 0.095.
Turning to U2SURP (UniProt O15042), the log2 fold change is inactive: 0.13.
Turning to TXNIP (UniProt Q9H3M7), the log2 fold change is inactive: 0.018.
Consider UBE2K (UniProt P61086), for which the log2 fold change is inactive: 0.007.
For U2AF1 isoform 2 (UniProt Q01081), the log2 fold change is inactive: -0.021.
As for TUBB3 (UniProt Q13509), the log2 fold change was inactive: 0.018.
For TXN2 (UniProt Q99757), the log2 fold change is inactive: -0.072.
